PubChem BioAssay AID602196 – INSERM | 2012
Test: 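Genes whose knock-down alters cisplatin killing of lung cancer cells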. Cells: human A549 lung cancer cells. Knock-down reagent: siRNA pair against human genes. Duration: 48 h transfection before cisplatin; time from cisplatin to read-out not stated. Treatment: cisplatin at a dose killing half of control-siRNA cells; exact dose and duration not given. Measured: 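Cisplatin cell death as a shift from the 50% death seen with control siRNA; siRNAs toxic or growth-blocking alone scored 0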. Direction: two-siRNA summed score (-2 to +2): higher = both siRNAs protect from cisplatin killing; -2 means both sensitise. Active means: 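Each siRNA scores 0 if harmful alone by LDH or WST-1, otherwise +1 if it reduces and -1 if it increases cisplatin killing; a gene is active when both siRNAs agree (sum +2 or -2)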. Meaning of the calls: active = both siRNAs shift cisplatin killing the same way; inactive = no consistent shift, or siRNA harmful alone.
In all, the deposit lists about 23,000 reagents; this is a random part of them. Over the whole deposit, 455 (2%) are marked active. 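Active includes both protection and sensitisation; some change values fall well beyond the stated -50 to +50 range.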 Not all columns of the deposit are shown. The record does not give: the amount of reagent.

What did the screen give for OR14C36?
two-siRNA summed score (-2 to +2): 0; Outcome: inactive

With TRAM1, how do the results read?
two-siRNA summed score (-2 to +2): 0; Outcome: inactive

How did the screen score LOC387746?
two-siRNA summed score (-2 to +2): 0; Outcome: inactive

How did the screen score LOC389362?
two-siRNA summed score (-2 to +2): 1; Outcome: inactive

With FOXR2, what was measured?
two-siRNA summed score (-2 to +2): 0; Outcome: inactive

For LOC442368, what does the deposit list?
two-siRNA summed score (-2 to +2): 1; Outcome: inactive

Which result is listed for PLSCR5?
two-siRNA summed score (-2 to +2): 0; Outcome: inactive

2 of these entries, set out differently.
{"Target gene": "LOC442368", "two-siRNA summed score (-2 to +2)": 1, "Outcome": "inactive"}
{"Target gene": "PLSCR5", "two-siRNA summed score (-2 to +2)": 0, "Outcome": "inactive"}

Continued:
Which result is listed for LOC401445 (retired record)?
two-siRNA summed score (-2 to +2): 0; Outcome: inactive

With CXCL13, what was measured?
two-siRNA summed score (-2 to +2): -1; Outcome: inactive

What is on record for LOC442435?
two-siRNA summed score (-2 to +2): 0; Outcome: inactive

What did the screen give for ATP6V0D1?
two-siRNA summed score (-2 to +2): 0; Outcome: inactive

Which result is listed for CDA?
two-siRNA summed score (-2 to +2): 0; Outcome: inactive

For GBA3, how do the results read?
two-siRNA summed score (-2 to +2): 0; Outcome: inactive

With RXRG, what was measured?
two-siRNA summed score (-2 to +2): 0; Outcome: inactive

What is on record for LOC440708?
two-siRNA summed score (-2 to +2): 0; Outcome: inactive

What is on record for BMPR1B?
two-siRNA summed score (-2 to +2): 2; Outcome: active

With NLGN3, what was measured?
two-siRNA summed score (-2 to +2): 0; Outcome: inactive

What is on record for LOC402095?
two-siRNA summed score (-2 to +2): 1; Outcome: inactive

For CAMK1D, what was measured?
two-siRNA summed score (-2 to +2): 0; Outcome: inactive

With SPCS2, what does the deposit list?
two-siRNA summed score (-2 to +2): 1; Outcome: inactive

Which result is listed for LOC391613?
two-siRNA summed score (-2 to +2): 0; Outcome: inactive
